Measured values taken from EP4803151A2.
Results are given in words; binding and its absence hold for the method and conditions named. Some entries that bind do so weakly or less than the wild type.

Target: recombinant cynomolgus DLL3 his tag protein (KACTUS, Cat. No. DLL-CM103) (cynomolgus)
Assay: ELISA, cynoDLL3-his coated at 1 ug/mL

| Binder | binding |
| --- | --- |
| 148C3A7-hIgG1 chimeric antibody (antibody, V domains shown) VH: EVQLQQSGPELIKPGTSVKMSCKASGYTFTTYLMHWVKQKPGQGLEWIGYINPYNDVTEYHEKFKDKATLTSDKSSSTAYMELSSLTSEDSAVYYCARLGGYGPGWYLDVWGAGTTVTVSS VL: DIQMTQSPASLSASVGETVTITCRASGSIHNYLAWYLHKQGKSPQLLVYNAKTLADGVPSRFSGSGSGTQYSLKINSLQPEDFGSYYCHHFWSTPWTFGGGTKLEIKR | binds |
| 362H3D3-hIgG1 chimeric antibody (antibody, V domains shown) VH: EVQLQQSGPELLKPGASVKISCKASGYTFTDYTMHWVKQSHGRSLEWIGGIHPNYGGTSYNEKFKDKATLTVDKSSSTAYMEFRSLTSEDSAVYYCARWGYYGGSYWYFDVWGTGTTVTVSS VL: DIQMTQSPASLSVSVGETVTITCRASENIYSNLAWYQQKQGKSPQLLVYAATNLADGVPSRFSGSGSGTQYSLKINSLQSEDFGSYYCQHFWGTPYTFGGGTKLEIKR | binds |
| 36B7F3-hIgG1 chimeric antibody (antibody, V domains shown) VH: QVQLQQSGPELVKPGASVKISCRASGYTFTDHHLNWVKQRPGQGLEWIGWIFPGSGSDYYNERFKDKATLTVDKSSSTAYMLLSSLTSEDSAVYFCERWDYWGQGTTLTVSS VL: QIVLTQSPTIMSASPGEKVTMTCSASSSISYMHWYQQKPGTSPKRWIYDTSTLASGVPARFSGGGSGTSYSLTISSMEAEDAATYYCHQRSSYPLTFGAGTKLELKR | binds |

The remaining lines, values ahead:

| binding | Binder |
| --- | --- |
| binds | 129H2B9-hIgG1 chimeric antibody (antibody, V domains shown) VH: EVNLEESGGGLVQPGGSMKLSCVVSGFTFSNYWMSWVRQSPEKGLEWVAEIRLKSDNYATHYAESVKGKFTISRDDSKSRLYLQMNSLRPEDTGIYYCTSNRFAYWGQGTLVTVSA VL: NIVMTQSPKSVSMSVGERVTLSCKASENVGTYVYWYQQKPEQSPKMMIYGASNRYTGVPDRFTGSGSATDFTLTIRSVQAEDLADYHCGQSYSYPFTFGSGTKLEIKR |
| binds | 310P3C5-hIgG1 chimeric antibody (antibody, V domains shown) VH: EVQLQQSGPELVKPGASVKISCKASGYTFTDFYMNWVKQTHGKSLEWIGDANPNNGGTTHNPRFKGQATLTVDKSSNTAYMELRSLTSEDSAVYYCARGGLPGDFDYWGQGTTLTVSS VL: DIQMTQSSSSFSVSLGDRVTITCKASEDIYNRLAWYQQKPGNAPRLLISGVTSLETGVPSRFSGSGSGKDYTLSITSLQTEDVATYYCQQYWSFPWTFGGGTKLEIKR |
